This note sets out measurements from US20230183226A1, “AKT3 MODULATORS” (Georgiamune LLC, priority 2020, published 2023).

By UniProt entry, the sequences of proteins in these tests, tags left out. Residues count along the entry.
UniProt Q9Y243, 2-479 limits assumed: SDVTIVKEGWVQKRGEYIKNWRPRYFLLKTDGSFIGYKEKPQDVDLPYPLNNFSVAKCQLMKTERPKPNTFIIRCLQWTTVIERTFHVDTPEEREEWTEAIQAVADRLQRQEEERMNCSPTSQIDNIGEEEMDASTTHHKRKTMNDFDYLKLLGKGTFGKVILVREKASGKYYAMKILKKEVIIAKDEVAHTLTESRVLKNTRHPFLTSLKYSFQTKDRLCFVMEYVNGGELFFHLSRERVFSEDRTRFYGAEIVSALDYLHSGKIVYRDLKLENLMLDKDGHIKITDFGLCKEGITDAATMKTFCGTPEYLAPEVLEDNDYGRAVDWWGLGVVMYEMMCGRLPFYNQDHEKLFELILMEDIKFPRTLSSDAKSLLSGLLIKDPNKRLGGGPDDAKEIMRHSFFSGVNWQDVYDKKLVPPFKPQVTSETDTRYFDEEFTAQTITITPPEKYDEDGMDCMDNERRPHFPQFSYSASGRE

Structures were worked out from names or drawings and are uncertain.

This test concerns the target Akt3 (Homo sapiens, UniProt Q9Y243). Nature of the test: Akt3 inhibition and activation activity (Foxp3 induction assay / Jurkat-FoxP3 luciferase reporter assay). Particulars: read-out: Akt3 activation activity EC50; Table 2. A general note: A reporter such as luciferase makes a cellular process visible.

The term EC50 denotes the concentration at which the effect is half-maximal.

With `Cc1cc(Nc2ccncc2)ccc1NC(=O)c1ccc(Nc2ccnc3ccc(C#N)cc23)cc1`, the EC50 is less than 2000 nM.
As to `Cc1cc(Nc2ccc3[nH]c(-c4ccc(Nc5ccnc6ccc(N7CCOCC7)cc56)cn4)nc3c2)ccn1`, the EC50 was less than 20 nM.
